Source: PubChem BioAssay AID1224828 (NIAID, 2016)
The whole screen tested about 17,000 reagents; shown is a random part of them. 762 of them (4.5%) were called active. 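Active calls include both raised and lowered p65 entry, mostly lowered; wells with fewer than 50 cells lack a z-score.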 Raw values are not corrected between plates. Entries without a mark were called inactive. Reagents against one gene are numbered here.

Test: 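Knock-downs that increase or decrease LPS-induced p65 nuclear translocation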 (primary screen)
System: mouse RAW264.7 G9 macrophage reporter cells (GFP-p65, Tnf promoter-mCherry)
Reagents: siRNA pool against mouse genes, 100 nM
Time to read-out: 2 days siRNA transfection, then 40 min LPS before fixation
Treatment: LPS (Salmonella minnesota R595) at 10 ng/ml
Measured: 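Imaged p65 nuclear translocation ratio, normalised to the plate median, converted to robust z-scores and averaged across two replicates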
Scale: p65 translocation robust z-score: higher = more nuclear NF-kappaB p65 after LPS than the plate median; nuclear/cytoplasmic p65 ratio: higher = more nuclear NF-kappaB p65
Rule for the call: 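Active if robust z is above 3.3 (negative regulators) or below -1.56, the Tlr4 control median (positive regulators); activity score 50 or more; control wells not called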
Calls: active = hit (p65 shift raised or lowered); inactive = no clear change

| gene | pool no. | p65 translocation robust z-score | nuclear/cytoplasmic p65 ratio, rep 1 | nuclear/cytoplasmic p65 ratio, rep 2 | low cell count flag |
| --- | --- | --- | --- | --- | --- |
| Zkscan3 | 1 | 0.05 | 1.4 | 1.27 | enough cells to score |
| Pole | 1 | -0.4 | 1.47 | 1.33 | enough cells to score |
| Trak2 | 1 | -0.11 | 1.61 | 1.59 | enough cells to score |
| Xlr4c | 1 | – | 0 | 1.51 | fewer than 50 cells per well; well left out of scoring |
| Cyb561a3 | 1 | – | 1.57 | 1.15 | fewer than 50 cells per well; well left out of scoring |
| Eps8 | 1 | 0.13 | 1.44 | 1.42 | enough cells to score |
| Cela2a | 1 | 0.24 | 1.49 | 1.47 | enough cells to score |
| Vill | 1 | -0.5 | 1.34 | 1.16 | enough cells to score |
| Ctnnbip1 | 1 | 1.28 | 1.49 | 1.54 | enough cells to score |
| Rnf130 | 1 | 0.48 | 1.57 | 1.27 | enough cells to score |
| Zp3r | 1 | -0.33 | 1.37 | 1.21 | enough cells to score |
| Ace2 | 1 | 1.02 | 1.84 | 1.7 | enough cells to score |
| Or2ag18 | 1 | – | 1.43 | 1.21 | fewer than 50 cells per well; well left out of scoring |
| Or11g1 | 1 | – | 1.29 | 1.1 | fewer than 50 cells per well; well left out of scoring |
| Faap24 | 1 | – | 1.18 | 1.47 | fewer than 50 cells per well; well left out of scoring |
| Ruvbl1 | 1 | -1.18 | 1.39 | 1.31 | enough cells to score |
| C730014E05Rik | 1 | 1.91 | 1.78 | 2.2 | enough cells to score |
| Clpp | 1 | -0.63 | 1.47 | 1.3 | enough cells to score |
| Myoz2 | 1 | 0.35 | 1.79 | 1.69 | enough cells to score |
| Cyp51 | 1 | -0.75 | 1.45 | 1.68 | enough cells to score |
| Ark2n | 1 | -0.33 | 1.46 | 1.42 | enough cells to score |
| Zcchc7 | 1 | 0.09 | 1.54 | 1.6 | enough cells to score |
| Zcchc7 | 2 | – | 1.37 | 1.44 | fewer than 50 cells per well; well left out of scoring |
| Slc25a12 | 1 | 0.53 | 1.48 | 1.32 | enough cells to score |
| Notch2 | 1 | 1.46 | 1.69 | 1.56 | enough cells to score |
| Mfng | 1 | 0.42 | 1.39 | 1.49 | enough cells to score |
| Abce1 | 1 | -0.09 | 1.65 | 1.61 | enough cells to score |
| C1qa | 1 | -0.45 | 1.61 | 1.48 | enough cells to score |
| Zfp358 | 1 | 1.83 | 1.68 | 1.44 | enough cells to score |
| Seh1l | 1 | 1.25 | 1.5 | 1.69 | enough cells to score |
| Dipk1a | 1 | – | 1.36 | 1.15 | fewer than 50 cells per well; well left out of scoring |
| Smarcc1 | 1 | -1.16 | 1.43 | 1.35 | enough cells to score |
| Rbm45 | 1 | -0.05 | 1.42 | 1.42 | enough cells to score |
| Atm | 1 | 0.57 | 1.67 | 1.46 | enough cells to score |
| Gsc2 | 1 | -1.31 | 1.27 | 1.19 | enough cells to score |
| Gpr161 | 1 | -0.02 | 1.47 | 1.61 | enough cells to score |
| Dohh | 1 | -0.57 | 1.36 | 1.47 | enough cells to score |

Laid out differently: 9 of the entries above.
{"gene":"Zp3r","pool no.":1,"p65 translocation robust z-score":-0.33,"nuclear/cytoplasmic p65 ratio, rep 1":1.37,"nuclear/cytoplasmic p65 ratio, rep 2":1.21,"low cell count flag":"enough cells to score"}
{"gene":"Ace2","pool no.":1,"p65 translocation robust z-score":1.02,"nuclear/cytoplasmic p65 ratio, rep 1":1.84,"nuclear/cytoplasmic p65 ratio, rep 2":1.7,"low cell count flag":"enough cells to score"}
{"gene":"Or2ag18","pool no.":1,"nuclear/cytoplasmic p65 ratio, rep 1":1.43,"nuclear/cytoplasmic p65 ratio, rep 2":1.21,"low cell count flag":"fewer than 50 cells per well; well left out of scoring"}
{"gene":"Or11g1","pool no.":1,"nuclear/cytoplasmic p65 ratio, rep 1":1.29,"nuclear/cytoplasmic p65 ratio, rep 2":1.1,"low cell count flag":"fewer than 50 cells per well; well left out of scoring"}
{"gene":"Faap24","pool no.":1,"nuclear/cytoplasmic p65 ratio, rep 1":1.18,"nuclear/cytoplasmic p65 ratio, rep 2":1.47,"low cell count flag":"fewer than 50 cells per well; well left out of scoring"}
{"gene":"Ruvbl1","pool no.":1,"p65 translocation robust z-score":-1.18,"nuclear/cytoplasmic p65 ratio, rep 1":1.39,"nuclear/cytoplasmic p65 ratio, rep 2":1.31,"low cell count flag":"enough cells to score"}
{"gene":"C730014E05Rik","pool no.":1,"p65 translocation robust z-score":1.91,"nuclear/cytoplasmic p65 ratio, rep 1":1.78,"nuclear/cytoplasmic p65 ratio, rep 2":2.2,"low cell count flag":"enough cells to score"}
{"gene":"Clpp","pool no.":1,"p65 translocation robust z-score":-0.63,"nuclear/cytoplasmic p65 ratio, rep 1":1.47,"nuclear/cytoplasmic p65 ratio, rep 2":1.3,"low cell count flag":"enough cells to score"}
{"gene":"Myoz2","pool no.":1,"p65 translocation robust z-score":0.35,"nuclear/cytoplasmic p65 ratio, rep 1":1.79,"nuclear/cytoplasmic p65 ratio, rep 2":1.69,"low cell count flag":"enough cells to score"}

The listing continues:
| gene | pool no. | p65 translocation robust z-score | nuclear/cytoplasmic p65 ratio, rep 1 | nuclear/cytoplasmic p65 ratio, rep 2 | low cell count flag |
| --- | --- | --- | --- | --- | --- |
| Tmprss4 | 1 | – | 0 | 1.09 | fewer than 50 cells per well; well left out of scoring |
| Dyrk1b | 1 | 0.52 | 1.73 | 1.48 | enough cells to score |
| Cnpy1 | 1 | -1.04 | 1.23 | 1.46 | enough cells to score |
| Qpctl | 1 | -0.97 | 1.22 | 1.34 | enough cells to score |
| Slc7a9 | 1 | 0.32 | 1.54 | 1.58 | enough cells to score |
| Cdc42ep3 | 1 | 0.75 | 1.59 | 1.46 | enough cells to score |
| Pramel52-ps | 1 | 0.22 | 1.34 | 1.63 | enough cells to score |
| Vmn2r-ps54 | 1 | -0.69 | 1.24 | 1.17 | enough cells to score |
| Or56b2 | 1 | -0.39 | 1.41 | 1.22 | enough cells to score |
| Mxd3 | 1 | 0.46 | 1.88 | 1.65 | enough cells to score |
| Dpp8 | 1 | 0.9 | 1.5 | 1.48 | enough cells to score |
| A730045E13Rik | 1 | -0.38 | 1.35 | 1.47 | enough cells to score |
| Nup58 | 1 | 0.29 | 1.82 | 1.52 | enough cells to score |
| Gpr6 | 1 | 0.94 | 1.42 | 1.72 | enough cells to score |
| Lysmd4 | 1 | – | 1.24 | 1.28 | fewer than 50 cells per well; well left out of scoring |
| Spag6l | 1 | 0.12 | 1.31 | 1.24 | enough cells to score |
| Tas2r114 | 1 | – | 1.36 | 1.27 | fewer than 50 cells per well; well left out of scoring |
| Ndn | 1 | 0.33 | 1.49 | 1.38 | enough cells to score |
| Mob4 | 1 | 2.07 | 1.65 | 1.43 | enough cells to score |
| Cd19 | 1 | -0.29 | 1.4 | 1.34 | enough cells to score |
| Trip13 | 1 | 0.53 | 1.63 | 1.53 | enough cells to score |
| Sox11 | 1 | -0.68 | 1.37 | 1.12 | enough cells to score |
